According to US7348153B2, “Method for identifying and designing immunogenic peptides” (Health Research, Inc., priority 2004, dated 2008):
Some results were stated once for a whole list of compounds, not compound by compound.

Test system: PBMCs from melanoma patients
Test: IFN-γ and IL-10 release by peptide-stimulated PBMC (double sandwich ELISA)
Format: cell-based, human
Conditions: for IFN-γ:IL-10 ratio: all patient PBMCs; for increase of IFN-γ levels after restimulation: patients 2 and 6
Procedure: Interaction of T cells with Ag can induce a few cycles of division resulting in Ag-primed uncommitted T cells or can induce T cells to differentiate and gain effector function. The effector function is best characterized by the ability of Ag-stimulated T cells to secrete Th1 cytokines and to mediate lysis of specific targets. To determine whether T cells from immunized patients acquired cytokine effector function, IFN-γ and IL-10 were measured in supernatants harvested from PBMC cultures stimulated with I-100 and I-102 peptides. To measure cytokine release, supernatants were collected at 24, 48, and 72 h after primary and secondary stimulation with 5, 25, and 50 μg/ml of peptides and stored frozen at −20° C. IFN-γ and IL-10 levels were measured by a double sandwich ELISA using the corresponding kits supplied by Biosource International. Assays were calibrated with human recombinant IFN-γ and IL-10 to detect each cytokine in a range of 15-1000 pg/ml.
IL-10 was assayed instead of IL-4 as a representative Th2 cytokine, because the PBMCs used as responders were from patients with melanoma. Therefore, they might contain regulatory cells. Patient 6 had supernatants saved from two separate experiments. […] Because after priming, all of the stimulated PBMCs were expanded in IL-2, we determined the effect of culturing PBMCs in IL-2 on IFN-γ induction.

Sequence	IFN-γ:IL-10 ratio (at priming (1° STIM))	IFN-γ:IL-10 ratio (at restimulation (2° STIM))	increase of IFN-γ levels after restimulation [log]
LLQLGYSGRL (designed peptide) [Peptide I-102]	< 1.0	> 3.0	> 1
LLVLLYSKL (mouse; mAb MF11-30) [Peptide I-100]	< 1.0	> 3.0	> 1
